The supplement of paper PMC5949888
Most values lie at the floor of the assay. Slopes are relative: functional sequences can read slightly below zero.

Test system: Saccharomyces cerevisiae PS128 hsf1 delta, HSF1(1-493) fusion
Test: growth estimate (transactivation domain function in HSF1 fusion, heat-shock survival) (a.u. (slope of normalised read count over time)); higher = stronger growth at 37°C, i.e. more transactivation activity
Conditions: library: random library

Substance	growth estimate
TGSPTTSRSSVIGHTVQGMP	< -0.25
TGSRP	< -0.25
TGSSRPRIQASLLVTMAPTA	< -0.25
TGTKYIFIAR	< -0.25
TGTRGNRFP	< -0.25
TGTSAEVAVRWVASRHA	< -0.25
TGVSSVRRCKKKKVGTAYTT	< -0.25
TGVSVPVPALCGKERIIRGS	< -0.25
TGVTHRQVRSKFVMLICPVH	< -0.25
TGWCGDADWMTF	< -0.25
TGWVNRAQ	< -0.25
TGYAGVAAI	< -0.25
TGYFRITGGRRGHGETGTCV	< -0.25
TGYPGAAALCDYWALPRGNP	< -0.25
TGYVAEESGLVTTMRGETRG	-0.192
TGYVVGVETYPTGRGAGGEL	< -0.25
THCFRSK	< -0.25
THCFVWGHAKLRPILGRPHS	< -0.25
THCLLIPEKRG	< -0.25
THCREWN	< -0.25
THELFVLRSDHSLPEVKRHR	< -0.25
THGEVCMGHSMGPT	< -0.25
THGRWVLGFGPDKSVIQ	< -0.25
THIRRTAESAVPFPPSRPLF	< -0.25

Substance	growth estimate
THKMITDCCLMASFTTATNT	< -0.25
THLLAIASEVKVSLPGSART	< -0.25
THQYHSSAQSEICSARPGDG	< -0.25
THRECCLSATRHES	< -0.25
THRTTYWESSIHRLIDGLIA	< -0.25
THRYPHSHIPTTRNGFGFTV	-0.135
THTQSGPRHEVRQIRQSRHA	< -0.25
THYGGRPGPLVNL	< -0.25
THYGTG	< -0.25
THYRGGTTRSLHCCPLDMPT	< -0.25
TIAAAVRRTGFVGTLWPRNR	< -0.25
TIARTGAERGPGDRTLDLDS	< -0.25
TIESNRFYCYEVKCDAATLR	< -0.25
TIFAG	< -0.25
TIGEVCRL	< -0.25
TIGGSR	< -0.25
TIGRRLASISTSLVLPSVLE	< -0.25
TIGVEWGGHQETLMPVQFWL	-0.0171
TIIPTSDRGLGAYNRVMPTT	< -0.25
TIKNRRRRVYCVTGPELRLG	< -0.25
TIKRGGSNN	< -0.25
TILTLKPARDAKTSSWRDSK	< -0.25
TILV	< -0.25
TILWHPSTWHDRRAAVIASI	< -0.25

Substance	growth estimate
TIPAMLSMWHEKAWLRTSHK	-0.246
TIPTGRVLFQERRDVDETP	< -0.25
TIQECPISPRSCTTLCAARG	< -0.25
TIQKVGGTSSLGWCRGVVDD	< -0.25
TIRQSIRWGVFSWVM	< -0.25
TISVTEILRRRRVHDDLHAP	< -0.25
TISVWPIL	< -0.25
TIVG	< -0.25
TIVRDTLTLCGERNGMMCQF	< -0.25
TIYCWQGESLASTNVAK	< -0.25
TKGLLSFGRSAHGTLPCFSE	< -0.25
TKGRGFHSDTPGGRSGYRGT	< -0.25
TKGRWRVGFVGWVPSVGQCA	< -0.25
TKIEGQLYIDGVPGSPRGLS	< -0.25
TKIVSFIGGLPTKAYPSRYG	< -0.25
TKKSMFLVPTRRRGPMFFGC	< -0.25
TKMQQVQPSVCFRRQSSGSL	< -0.25
TKMTIGER	< -0.25
TKNWRGGSFGSGWQIGLTHD	-0.173
TKRGSFIDHLLGAINR	< -0.25
TKRKRTRRVSRHLVRSVTTW	< -0.25
TKRLCPRTTRGRPGSAWLKF	< -0.25
TKRLGLRAFRATAYHMYVGL	< -0.25
TKSEMSCLLDAVVVEFVFVM	< -0.25

Retrieved one by one from above, 6 records:
Substance	growth estimate
TKSEMSCLLDAVVVEFVFVM	< -0.25
TIVG	< -0.25
TISVWPIL	< -0.25
TIPAMLSMWHEKAWLRTSHK	-0.246
TKRLGLRAFRATAYHMYVGL	< -0.25
TIYCWQGESLASTNVAK	< -0.25

Remaining list, next part.

Substance	growth estimate
TKSTTGGAIPRVARSSS	< -0.25
TKTTVRRG	< -0.25
TKYLRKSTVQFRVQSFPSAT	< -0.25
TLC	< -0.25
TLEHNPWGNACSEGEVCMDI	< -0.25
TLERGTEIVFWQRRQSLNSV	< -0.25
TLFYGSAIQPAEVSFPPIPL	< -0.25
TLG	< -0.25
TLGFCSELQRCRTLFVCLVP	< -0.25
TLGI	< -0.25
TLGMAKAVKSPAASCQLRSP	< -0.25
TLGTEVACMVVPQNIGVLKR	< -0.25
TLGVKRETITYRWFWGPSQT	< -0.25
TLGVTYEPIECYVLVISC	< -0.25
TLHSATFRNSQ	-0.246
TLHTMS	< -0.25
TLITQSYASKFGQSELFIDC	< -0.25
TLKESLTRLDVRKLMRR	< -0.25
TLKGD	< -0.25
TLKISLKQLASRSTITDRIT	< -0.25
TLKKFRGGGTAPPTHGFMAG	< -0.25
TLLYTEYQLVPRPKGLVTCA	< -0.25
TLLYVIDSQECGCGGYDLIG	< -0.25
TLNCA	< -0.25

Substance	growth estimate
TLQHDVHQMRPGSSRAATFG	< -0.25
TLRCLLLSLL	< -0.25
TLRFNYVIFVNVSLCVTACH	< -0.25
TLRGERICNQRSY	< -0.25
TLRSMA	< -0.25
TLRTSYAG	< -0.25
TLS	< -0.25
TLSDSRYGSEDSLLRYRDHP	< -0.25
TLSGSGSSLWASGDGSYSWA	< -0.25
TLSHSGHYLSSIVDS	-0.197
TLTETFPDCP	< -0.25
TLVGSAGADLAGSHGSPSRV	< -0.25
TLVISNARKLDLLSTAFQDG	< -0.25
TLVNQDTRIS	< -0.25
TLWKPQ	< -0.25
TLYGLFRNLLGFDDQKRYDA	< -0.25
TMDTRYTHDSILPAKLSRLP	< -0.25
TMHYDCCA	< -0.25
TMQARKRAPRLRLPGRFR	< -0.25
TMRTRLVQHKWSGSCAYDLR	< -0.25
TMSAPGEQGIDVTGSLRSCH	-0.25
TNCNVGD	< -0.25
TNDVRRCTPHPDRVTLTQEQ	< -0.25
TNF	< -0.25

Substance	growth estimate
TNFPLCEDVEPRNIGSNDAR	< -0.25
TNGKLGHEVSILCWRDALGR	< -0.25
TNHVAYEGVWSIKQGNGDRL	< -0.25
TNISLQ	< -0.25
TNKGTPTSGCRSSVVTVRHR	< -0.25
TNLKVEPVDVDQQAVVSNQI	< -0.25
TNNRVPVSALLTSCRRKDDV	< -0.25
TNPRLAGK	< -0.25
TNQPIPKLIPWGMRRAGLAC	< -0.25
TNRAERTVCAALAVESYRRA	< -0.25
TNRGY	< -0.25
TNSTRGRVVRACLCSWHRGL	< -0.25
TNTLTA	-0.246
TNVRRLDACPGLNIN	< -0.25
TNVSSEGLRYHVVTVGRPGF	< -0.25
TNYAGSHDDPRTSMMAV	< -0.25
TPAPDCKFVCCGLYVHETGI	< -0.25
TPASKSSTERTRTKSFQPNL	< -0.25
TPCTFKLDNW	< -0.25
TPEE	< -0.25
